Results from one PubChem assay

From PubChem BioAssay record AID1224904 (Broad Institute, 2016).

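Control-channel Italica luciferase signal in doxycycline-induced 293T-iDUX4 cells, given as percent activity after a 24-hour treatment. The test concentration is not given here. Percent change in the Italica control signal; more negative values mean stronger inhibition, which points to nonspecific, tet-on or cytotoxic effects.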

Values are in %. Common to all entries: measured here: Italica tet-on control reporter. Part of the compounds only, not a random draw; the main read-out is not listed here.

compound,activity change (%)
O=C(c1ccc(F)cc1)N1CCCCN2[C@H](C1)[C@@H](c1ccc(-c3ccccc3)cc1)[C@@H]2CO,-27.55
O=C(c1ccccc1F)N1CC(=O)N2[C@H](C1)[C@@H](c1ccc(C#Cc3ccccc3)cc1)[C@@H]2CO,-27.63
N#C[C@@H]1[C@H](c2ccccc2C2=CCCCC2)[C@@H](CO)N1S(=O)(=O)c1ccccc1,-10.14
CC(C)NC(=O)N1CC[C@@H]2[C@H]1c1cc(C#Cc3cccnc3)ccc1N(C)[C@@H]2CO,2.756
O=S(=O)(c1cccs1)N1CCCCN2[C@@H](CO)[C@@H](c3ccc(Br)cc3)[C@@H]2C1,-10.85
CCCNC(=O)N1CC2(CN(Cc3cccc(F)c3)C2)c2c([nH]c3cc(OC)ccc23)[C@H]1CO,-14.54
O=C(c1ccccc1)N1CC(=O)N2[C@H](C1)[C@H](c1ccc(/C=C/c3ccccc3)cc1)[C@@H]2CO,-12.97
COc1cccc(S(=O)(=O)N2CC[C@H]3[C@H](CO)Nc4ccc(-c5ccc(C#N)cc5)cc4[C@H]32)c1,-16.18
O=C(Nc1ccccc1F)N1CC(=O)N2[C@H](C1)[C@@H](c1ccc(C#CC3CC3)cc1)[C@@H]2CO,-3.601
N#Cc1ccc(-c2ccc([C@@H]3[C@H]4CN(C(=O)Nc5ccc(F)cc5)CCCCN4[C@H]3CO)cc2)cc1,-2.106
O=C(C[C@@H]1CC[C@H]2[C@@H](COC[C@H](O)CN2Cc2nccs2)O1)NCc1ccc(Oc2ccccc2)cc1,-18.03
C[C@H]1CN([C@@H](C)CO)C(=O)c2c(c3ccccc3n2C)-c2ccccc2CO[C@H]1CN(C)C(=O)Nc1cccc(Cl)c1Cl,-65.81
CC(C)NC(=O)N1CCCCN2[C@H](CO)[C@H](c3ccc(C#Cc4ccccc4)cc3)[C@H]2C1,-19.65
Cc1ccc(-c2ccccc2[C@H]2[C@@H](C#N)N(c3ncc(-c4ccccc4)s3)[C@@H]2CO)cc1,-56.19
O=C(C[C@@H]1C[C@H]2c3cc(NC(=O)c4ccc5c(c4)OCO5)ccc3O[C@H]2[C@@H](CO)O1)NCc1ccc(Oc2ccccc2)cc1,-47.66
COCC(=O)N1CCC2(CC1)CN(Cc1cc(F)ccc1F)[C@H](CO)c1c2c2ccc(OC)cc2n1C,-6.054
COc1ccc(CN2CC3(CCN(Cc4ccccn4)CC3)c3c(n(C)c4cc(OC)ccc34)[C@H]2CO)cc1,-39.11
COc1cccc(-c2ccc3c(c2)[C@H]2[C@H](CCN2C(=O)NC2CCCC2)[C@H](CO)N3C)c1,-48.45
C[C@@H]1CN([C@@H](C)CO)C(=O)CCCn2cc(nn2)CO[C@@H]1CN(C)Cc1ccc(C(=O)Nc2ccccc2N)cc1,8.318
O=C(CCN1CCCCC1)N[C@@H]1CC[C@H](CC(=O)N2CCC(Cc3ccccc3)CC2)O[C@H]1CO,0.7385
C[C@H](CO)N1C[C@H](C)[C@@H](CN(C)Cc2ccc(Oc3ccccc3)cc2)OCc2ccccc2-c2ccccc2C1=O,-22.73
CN1c2ccc(-c3ccc(F)cc3)cc2[C@H]2[C@H](CCN2C(=O)c2ccncc2)[C@H]1CO,-27.12
CS(=O)(=O)N1CC(=O)N2[C@H](CO)[C@@H](c3ccc(C#Cc4ccccc4)cc3)[C@@H]2C1,-4.026
C[C@H]1CN([C@@H](C)CO)C(=O)CCCn2nncc2CO[C@H]1CN(C)Cc1ccc(-c2ccccc2)cc1,-36.18
CC(=O)N1CC[C@@H]2[C@H](CO)Nc3ccc(C#Cc4ccccc4F)cc3[C@@H]21,6.307
COc1ccc2c3c(n(C)c2c1)[C@@H](CO)N(C(=O)C1CCOCC1)CC31CN(Cc2cccc(F)c2)C1,-9.028
COc1cccc(C#Cc2ccc([C@@H]3[C@H](CO)N4C(=O)CN(C(=O)C5CC5)C[C@@H]34)cc2)c1,-8.059
COc1ccccc1CNC(=O)C[C@H]1C[C@H]2c3cc(NC(=O)Nc4ccc(C(F)(F)F)cc4)ccc3O[C@H]2[C@H](CO)O1,-1.851
CN1c2ccc(-c3cccc(C#N)c3)cc2[C@H]2[C@H](CCN2S(=O)(=O)c2ccccc2)[C@H]1CO,-18.22
O=C(NCC1CC1)[C@@H]1[C@@H](CO)[C@@H]2Cn3c(ccc(-c4cccnc4)c3=O)[C@H]1N2C(=O)C1CC1,6.12
N#C[C@@H]1[C@H](c2ccccc2-c2ccc(F)cc2)[C@H](CO)N1c1ncc(-c2ccccc2)s1,-16.75
O=C(Cc1ccccn1)N1CCCCN2[C@H](CO)[C@H](c3ccc(-c4ccccc4F)cc3)[C@@H]2C1,-10.31
Cc1ccccc1S(=O)(=O)N1CC[C@@H]2[C@@H](CO)Nc3ccc(-c4cccc(C#N)c4)cc3[C@@H]21,-16.63
C[C@@H]1CN([C@H](C)CO)C(=O)c2c(c3ccccc3n2C)-c2ccccc2CO[C@@H]1CN(C)C(=O)Nc1cccc(Cl)c1Cl,-26.1
O=C(C[C@@H]1CC[C@H](NC(=O)c2ccc3c(c2)OCO3)[C@@H](CO)O1)NCc1ccc(Oc2ccccc2)cc1,-16.6
COc1ccc(CN2C[C@@H](C)[C@@H](OC)CN(C)C(=O)c3cc(NC(=O)c4nc5ccccc5s4)ccc3OC[C@@H]2C)cc1,-21.69
COc1ccc(CNC(=O)N(C)C[C@@H]2OCc3ccccc3-c3c(n(C)c4ccccc34)C(=O)N([C@@H](C)CO)C[C@@H]2C)cc1,-16.83
COc1ccc2c3c([nH]c2c1)[C@H](CO)N(Cc1ccc(Cl)cc1)CC31CCN(Cc2nccs2)CC1,-11.38
O=C(c1ccccn1)N1CC2(C1)[C@@H](c1ccccc1)[C@H](CO)N2Cc1ccc(Cl)cc1,0.09385
C[C@H]1CN([C@@H](C)CO)C(=O)c2c(c3ccccc3n2C)-c2ccccc2CO[C@H]1CN(C)S(=O)(=O)c1ccsc1,-40.88
COc1cccc(C#Cc2ccc([C@H]3[C@@H](CO)N4C(=O)CN(C(=O)c5ccccc5)C[C@H]34)cc2)c1,-5.831
C[C@H](CO)N1C[C@H](C)[C@H](CN(C)C(=O)Cc2ccccc2)OCc2ccccc2-c2c(n(C)c3ccccc23)C1=O,-90.36
COC(=O)[C@@H]1[C@@H](CO)[C@@H]2Cn3c(ccc(/C=C/c4ccccc4)c3=O)[C@H]1N2CC1CCCC1,-11.15
O=C(Nc1ccccc1)N1CCCCN2[C@H](C1)[C@@H](c1ccc(Br)cc1)[C@@H]2CO,-0.9051

The first 5 entries again:

compound	activity change (%)
O=C(c1ccc(F)cc1)N1CCCCN2[C@H](C1)[C@@H](c1ccc(-c3ccccc3)cc1)[C@@H]2CO	-27.55
O=C(c1ccccc1F)N1CC(=O)N2[C@H](C1)[C@@H](c1ccc(C#Cc3ccccc3)cc1)[C@@H]2CO	-27.63
N#C[C@@H]1[C@H](c2ccccc2C2=CCCCC2)[C@@H](CO)N1S(=O)(=O)c1ccccc1	-10.14
CC(C)NC(=O)N1CC[C@@H]2[C@H]1c1cc(C#Cc3cccnc3)ccc1N(C)[C@@H]2CO	2.756
O=S(=O)(c1cccs1)N1CCCCN2[C@@H](CO)[C@@H](c3ccc(Br)cc3)[C@@H]2C1	-10.85